Values of other authors, collected in patent US9481670B2, “Triazine compounds” (Sphaera Pharma PTE. Ltd., priority 2011, dated 2016).
For at least one compound, name, drawing or mass did not settle the structure.

System: human tumor xenografts
Conditions: mice with human tumor xenografts, published studies; cited from earlier work

O=c1cc(N2CCOCC2)oc2c(-c3ccccc3)cccc12 [LY294002]
signaling through the PI3K pathway: reduces signaling through the PI3K pathway | tumor volume: causes reduction of tumor volume
